From US7498127
These are yes or no findings as the source states them, for the method shown. For part of these data: Binding seen in cells or lysates may run through a third protein. Some binding calls cover weakened binding; strength is not graded here. For part of these data: Where a sequence is shown, tags or fusion partners need not be part of it.

By UniProt entry, the sequences of proteins in these tests, tags left out. Residues count along the entry.
UniProt Q99075, residues 149-208: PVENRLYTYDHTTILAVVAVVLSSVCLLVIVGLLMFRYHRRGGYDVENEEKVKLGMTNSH

Columns and labels:
[1] = target: T1, PLZF protein derivative consisting only of a region of Zn5 to Zn8 (UniProt Q05516); experiment: GST pull-down on Glutathione Sepharose beads, cell lysate, anti-FLAG immunoblot
T1 sequence (looked up): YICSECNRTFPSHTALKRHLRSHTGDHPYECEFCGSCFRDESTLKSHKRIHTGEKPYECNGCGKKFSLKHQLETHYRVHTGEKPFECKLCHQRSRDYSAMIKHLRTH

[2] = target: T2, FLAG-tagged wild-type PLZF protein (UniProt Q05516); experiment: as above
T2 sequence (looked up): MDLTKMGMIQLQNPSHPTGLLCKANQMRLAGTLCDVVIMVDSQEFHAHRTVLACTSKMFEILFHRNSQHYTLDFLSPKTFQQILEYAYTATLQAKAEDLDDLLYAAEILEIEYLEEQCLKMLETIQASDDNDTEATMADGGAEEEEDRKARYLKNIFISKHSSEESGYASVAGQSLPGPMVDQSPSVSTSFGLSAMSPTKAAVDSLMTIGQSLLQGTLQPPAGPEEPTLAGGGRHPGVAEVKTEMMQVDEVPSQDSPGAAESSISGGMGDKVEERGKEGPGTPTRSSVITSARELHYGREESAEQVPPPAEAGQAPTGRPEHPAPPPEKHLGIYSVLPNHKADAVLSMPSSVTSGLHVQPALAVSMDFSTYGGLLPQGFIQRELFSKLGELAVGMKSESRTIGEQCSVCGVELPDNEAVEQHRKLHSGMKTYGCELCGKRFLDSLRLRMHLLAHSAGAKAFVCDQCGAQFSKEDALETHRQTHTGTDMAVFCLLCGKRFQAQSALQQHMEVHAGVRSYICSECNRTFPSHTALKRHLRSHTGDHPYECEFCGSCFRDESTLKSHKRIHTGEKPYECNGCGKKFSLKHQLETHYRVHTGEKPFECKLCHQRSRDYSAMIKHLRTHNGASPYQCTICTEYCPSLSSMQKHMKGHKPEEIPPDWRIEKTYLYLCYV

[3] = target: T3, PLZF protein derivative consisting only of a region of Zn4 to Zn9 (UniProt Q05516); experiment: as above
T3 sequence (looked up): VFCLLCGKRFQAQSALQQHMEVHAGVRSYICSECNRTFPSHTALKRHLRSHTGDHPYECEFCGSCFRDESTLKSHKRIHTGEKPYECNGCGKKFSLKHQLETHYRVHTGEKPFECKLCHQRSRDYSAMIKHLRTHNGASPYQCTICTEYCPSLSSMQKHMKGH

[4] = target: T4, PLZF protein derivative consisting only of a region of Zn1 to Zn6 (UniProt Q05516); experiment: as above
T4 sequence (looked up): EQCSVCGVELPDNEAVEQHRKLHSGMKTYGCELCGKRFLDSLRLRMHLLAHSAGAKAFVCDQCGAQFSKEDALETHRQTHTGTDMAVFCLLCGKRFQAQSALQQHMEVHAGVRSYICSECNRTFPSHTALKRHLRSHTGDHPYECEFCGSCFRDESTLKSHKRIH

[5] = target: T5, PLZF protein derivative consisting only of a region of Zn1 to Zn9 (UniProt Q05516); experiment: as above
T5 sequence (looked up): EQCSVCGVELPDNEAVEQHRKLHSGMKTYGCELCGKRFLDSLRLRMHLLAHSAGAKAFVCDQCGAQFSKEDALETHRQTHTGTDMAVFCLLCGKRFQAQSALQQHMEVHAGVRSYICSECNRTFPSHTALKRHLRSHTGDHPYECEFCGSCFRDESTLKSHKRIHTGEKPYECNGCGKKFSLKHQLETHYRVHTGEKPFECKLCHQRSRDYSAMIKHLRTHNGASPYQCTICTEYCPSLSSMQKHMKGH

tagged PLZF protein = target: T6, tagged PLZF protein (UniProt Q05516); experiment: cells transfected with tagged PLZF, after processing of HB-EGF; method not described
T6 sequence (looked up): T2 sequence (looked up)

Row | binding [1] | binding [2] | binding [3] | binding [4] | binding [5] | binding (tagged PLZF protein) | Substance
1 | binds | binds | binds | binds | binds |  | GST binding HB-EGF remaining fragment (from UniProt P08515 1-218; Q99075 185-208)
2 |  |  |  |  |  | binds | remaining fragment of HB-EGF produced in cells by processing (from UniProt Q99075 149-208)
